# Data from the supplement of paper PMC9135407.
# Values joined by “and” are separate entries in the source; they are usually repeats but may differ in a detail not shown here. Identical values can stand only once. ± gives the standard deviation of the averaged measurements. The list shows a part of the results. Baselines shift from plate to plate; read single values as rough.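 Primary human stellate myofibroblasts activated in culture; inactivation shown by regained lipid droplets. Readout: fraction of Hoechst-counted cells exceeding a per-plate Bodipy threshold, duplicate wells, each plate with DMSO negative and nortriptyline positive controls. Hits: control-normalized score beyond the plate's top-tenth-percentile nortriptyline wells, or among its three best wells. Final well concentrations unstated.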
# System: primary human hepatic stellate cells (donor 1)
# Assay: percent Bodipy-positive cells; higher = more lipid droplet accumulation
# Settings: 48 h
# Description: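 Primary lipid accumulation screen in primary human hepatic stellate cell myofibroblasts (donor 1, passage 8) in 384-well plates. 100 nL of library compound was pin-transferred into 30 µL medium in duplicate, and cells were treated for 48 h. The 'Scaled' score combines distance from plate baseline, toxicity and reproducibility penalties, and is normalised to nortriptyline (positive) and DMSO (negative) controls on each plate. A hit is defined as scaled >0.85 or among the top 3 wells per plate.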
# [1] = library stock concentration: 10 mM
# [2] = library stock concentration: 3.33 mM
# [3] = library stock concentration: 1 mM
# [4] = library stock concentration: 80 uM
# [5] = library stock concentration: 400 uM
smiles,measurement,setting,value
CC1(C)CC(=O)c2c(C(F)(F)F)nn(-c3ccc(C(N)=O)c(N[C@H]4CC[C@H](OC(=O)CN)CC4)c3)c2C1,percent Bodipy-positive cells,[1],79.68 ± 0.55%
Cc1cc(/C=C/C#N)cc(C)c1Nc1ccnc(Nc2ccc(C#N)cc2)n1 [Rilpivirine],percent Bodipy-positive cells,[2],32.6 ± 15%
same,percent Bodipy-positive cells,[1],64.9 ± 26%
O=C(Nc1cc(C(F)(F)F)cc(C(F)(F)F)c1)c1cc(Cl)ccc1O,percent Bodipy-positive cells,[1],98.8 ± 1.6%
Cc1nc(N)sc1-c1ccnc(Nc2ccc(N3CCOCC3)cc2)n1,percent Bodipy-positive cells,[1],98.2 ± 1.2%
CCOC(=O)C1=C(COCCN)NC(C)=C(C(=O)OC)C1c1ccccc1Cl (stereo not given) [Amlodipine besylate],percent Bodipy-positive cells,library stock concentration: 3.5 mM,2.32 ± 1.6%
CCOC(=O)C1=C(COCCN)NC(C)=C(C(=O)OC)C1c1ccccc1Cl (stereo not given) [Amlodipine],percent Bodipy-positive cells,[2],56.6 ± 8.8%
same,percent Bodipy-positive cells,library stock concentration: 4.9 mM,9.34 ± 2.2%
same,percent Bodipy-positive cells,[1],91.5 ± 6.3%
CC(=O)N1CCCC1C(=O)O (stereo not given) [N-acetylproline],percent Bodipy-positive cells,[1],38.3 ± 13%
Oc1ccc(/C=C/c2cc(O)cc(O)c2)cc1 [trans-Resveratrol],percent Bodipy-positive cells,[3],13.9 ± 3.9%
Oc1ccc(/C=C/c2cc(O)cc(O)c2)cc1 [Resveratrol],percent Bodipy-positive cells,,45.1 ± 9.5%
same,percent Bodipy-positive cells,[4],46.9 ± 10%
same,percent Bodipy-positive cells,[5],46.2 ± 8.4%
same,percent Bodipy-positive cells,library stock concentration: 2 mM,48.8 ± 7.8%
same,percent Bodipy-positive cells,[2],18.1 ± 5.5%
same,percent Bodipy-positive cells,library stock concentration: 21.9 mM,9.55 ± 0.18%
Oc1ccc(/C=C/c2cc(O)cc(O)c2)cc1,percent Bodipy-positive cells,[1],15.1 ± 7.2%
CCCCC[C@](C)(O)/C=C/[C@@H]1[C@@H](C/C=C\CCCC(=O)OC)[C@@H](O)C[C@H]1O [15(S)-15-methyl Prostaglandin F2.alpha. methyl ester],percent Bodipy-positive cells,[3],14.3 ± 6.7%
COc1ccc(C2=NC(c3ccc(Cl)cc3)C(c3ccc(Cl)cc3)N2C(=O)N2CCNC(=O)C2)c(OC(C)C)c1 (stereo not given) [Nutlin-3b],percent Bodipy-positive cells,[2],42.1 ± 1.6%
same,percent Bodipy-positive cells,[1],61.4 ± 13%
COc1ccc(C2=NC(c3ccc(Cl)cc3)C(c3ccc(Cl)cc3)N2C(=O)N2CCNC(=O)C2)c(OC(C)C)c1 (stereo not given) [Nutlin-3a],percent Bodipy-positive cells,[2],60.5 ± 4.4%
COc1ccc(/C=C/C(=O)Nc2ccccc2C(=O)O)cc1OC,percent Bodipy-positive cells,[1],7.3 ± 4.3%
COc1ccc(/C=C/C(=O)Nc2ccccc2C(=O)O)cc1OC [Tranilast],percent Bodipy-positive cells,[3],17.6 ± 13%
same,percent Bodipy-positive cells,[2],7.18 ± 3.1%
same,percent Bodipy-positive cells,library stock concentration: 6.1 mM,8.4% and 2.12%
same,percent Bodipy-positive cells,[1],17% and 14.5% and 9.72%
CCN(CC)CCNC(=O)c1c(C)[nH]c(/C=C2\C(=O)Nc3ccc(F)cc32)c1C [Sunitinib malate],percent Bodipy-positive cells,[4],25.2 ± 12%
same,percent Bodipy-positive cells,[5],25.8 ± 14%
same,percent Bodipy-positive cells,[1],100%
